Test results published in US20230391837A1.
Like-named read-outs stand apart in the source and are kept apart here. Results are given in words; binding and its absence hold for the method and conditions named. Some entries that bind do so weakly or less than the wild type.

What was measured:
[1] = target: T1, podoplanin (PDPN) receptor on HSC2 human oral squamous cell carcinoma cells (human) (UniProt Q86YL7)
T1 sequence (looked up): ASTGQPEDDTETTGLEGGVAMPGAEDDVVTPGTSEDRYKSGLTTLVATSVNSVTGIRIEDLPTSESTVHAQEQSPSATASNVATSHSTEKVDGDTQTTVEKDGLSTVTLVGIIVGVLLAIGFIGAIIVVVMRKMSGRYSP

[2] = target: T1, podoplanin (PDPN) receptor on HSC2 human oral squamous cell carcinoma cells (human); assay: confocal microscopy, fluorescent MASL on HSC2 cells (FIG. 4)
[3] = target: T1, podoplanin (PDPN) receptor on HSC2 human oral squamous cell carcinoma cells (human); assay: confocal microscopy, fluorescent MASL 2 min on HSC2 cells, PDPN antibody stain

Measured: binding

B1: Maackia amurensis seed lectin (MASL) (protein)
chain: SDELSFTINNFVPNEADLLFQGEASVSSTGVLQLTRVENGQPQQYSVGRALYAAPVRIWDNTTGSVASFSTSFTFVVKAPNPTITSDGLAFFLAPPDSQIPSGRVSKYLGLFNNSNSDSSNQIVAVEFDTYFGHSYDPWDPNYRHIGIDVNGIESIKTVQWDWINGGVAFATITYLAPNKTLIASLVYPSNQTSFIVAASVDLKEILPEWVRVGFSAATGYPTQVETHDVLSWSFTSTLEANCDAATEN
binds: [1] | [2] | [3]
